According to PMC2572843:
Results are given in words; binding and its absence hold for the method and conditions named. In cells and extracts the contact can be indirect. A yes stands for co-enrichment or nearness to the bait. Other partners may have been found. For part of these data: No binding means not detected with the bait. Each block holds one molecule with its values, some of them ahead of it.

The chains behind the UniProt entries cited, without tags or fusion partners. Residues count along the entry.
UniProt P02769, residues 25-607: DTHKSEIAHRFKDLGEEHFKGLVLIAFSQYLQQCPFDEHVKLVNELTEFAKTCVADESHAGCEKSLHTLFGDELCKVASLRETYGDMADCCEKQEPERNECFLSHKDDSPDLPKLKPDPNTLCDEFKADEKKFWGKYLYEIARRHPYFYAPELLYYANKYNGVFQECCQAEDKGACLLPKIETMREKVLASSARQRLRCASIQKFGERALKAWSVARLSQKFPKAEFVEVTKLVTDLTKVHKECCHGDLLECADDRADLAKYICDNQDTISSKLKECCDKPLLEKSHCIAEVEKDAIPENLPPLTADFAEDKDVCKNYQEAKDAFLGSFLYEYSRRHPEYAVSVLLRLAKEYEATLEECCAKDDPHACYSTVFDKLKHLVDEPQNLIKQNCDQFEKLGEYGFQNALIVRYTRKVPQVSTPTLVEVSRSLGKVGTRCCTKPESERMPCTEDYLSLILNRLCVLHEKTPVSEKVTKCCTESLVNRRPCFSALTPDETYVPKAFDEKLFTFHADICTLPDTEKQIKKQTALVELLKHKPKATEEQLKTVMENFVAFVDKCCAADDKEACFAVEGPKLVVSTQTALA
UniProt P00924: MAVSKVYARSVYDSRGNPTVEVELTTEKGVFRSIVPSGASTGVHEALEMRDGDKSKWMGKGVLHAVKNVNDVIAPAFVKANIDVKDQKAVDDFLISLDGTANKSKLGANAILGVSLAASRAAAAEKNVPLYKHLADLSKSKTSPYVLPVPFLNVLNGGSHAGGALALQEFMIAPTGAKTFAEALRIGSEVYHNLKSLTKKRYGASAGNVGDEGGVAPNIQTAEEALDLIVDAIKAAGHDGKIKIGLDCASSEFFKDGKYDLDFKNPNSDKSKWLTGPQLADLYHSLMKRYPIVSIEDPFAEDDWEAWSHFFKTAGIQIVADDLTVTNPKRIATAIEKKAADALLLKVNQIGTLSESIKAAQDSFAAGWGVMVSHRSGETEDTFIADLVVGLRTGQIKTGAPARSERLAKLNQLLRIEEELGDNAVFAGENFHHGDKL
UniProt Q03048: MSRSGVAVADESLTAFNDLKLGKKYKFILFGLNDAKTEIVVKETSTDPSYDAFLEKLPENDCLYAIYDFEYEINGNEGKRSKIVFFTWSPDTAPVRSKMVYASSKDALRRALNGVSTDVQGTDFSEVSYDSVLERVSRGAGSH
UniProt P00817: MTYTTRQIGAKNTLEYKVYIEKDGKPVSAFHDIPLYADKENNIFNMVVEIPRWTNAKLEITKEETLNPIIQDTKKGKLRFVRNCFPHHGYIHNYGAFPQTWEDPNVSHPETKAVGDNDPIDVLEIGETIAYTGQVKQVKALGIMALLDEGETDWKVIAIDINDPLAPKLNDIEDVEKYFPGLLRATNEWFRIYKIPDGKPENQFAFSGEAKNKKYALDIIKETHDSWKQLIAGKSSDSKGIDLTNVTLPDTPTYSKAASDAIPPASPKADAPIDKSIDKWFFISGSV

Columns and labels:
[1] = target: yeast tropomyosin Tpm1 (recombinant) (S. cerevisiae) (UniProt P17536); assay: affinity purification with mass spectrometry; purified Tpm1 coupled to Affi-Gel 10 agarose; yeast S288c high-speed supernatant in HEK buffer (20 mM Hepes pH 7.5, 1 mM EDTA, 50 mM KCl, 10% glycerol) loaded over three hours, washed overnight, eluted with 0.5 M KCl or 3 M urea; BSA columns in parallel; MudPIT; only the target purified
[2] = target: bovine serum albumin (bovine) (UniProt P02769); assay: as above

Molecule: Eno1p (from UniProt P00924 1-437)
- binding [1]: binds

Molecule: Cof1p (endogenous yeast cofilin) (from UniProt Q03048 1-143)
- binding [1]: binds
- binding [2]: no binding

B1: Ahp1p (protein, UniProt P38013 1-176)
chain: MSDLVNKKFPAGDYKFQYIAISQSDADSESCKMPQTVEWSKLISENKKVIITGAPAAFSPTCTVSHIPGYINYLDELVKEKEVDQVIVVTVDNPFANQAWAKSLGVKDTTHIKFASDPGCAFTKSIGFELAVGDGVYWSGRWAMVVENGIVTYAAKETNPGTDVTVSSVESVLAHL
- binding [1]: binds

Continued, values first:

- binding [1]: binds
Molecule: Ipp1p (from UniProt P00817 1-287)

- binding [1]: binds
B2: Tpi1p (protein, UniProt P00942 1-248)
chain: MARTFFVGGNFKLNGSKQSIKEIVERLNTASIPENVEVVICPPATYLDYSVSLVKKPQVTVGAQNAYLKASGAFTGENSVDQIKDVGAKWVILGHSERRSYFHEDDKFIADKTKFALGQGVGVILCIGETLEEKKAGKTLDVVERQLNAVLEEVKDWTNVVVAYEPVWAIGTGLAATPEDAQDIHASIRKFLASKLGDKAASELRILYGGSANGSNAVTFKDKADVDGFLVGGASLKPEFVDIINSRN

- binding [1]: binds
B3: Pck1p (protein, UniProt P10963 1-549)
chain: MSPSKMNATVGSTSEVEQKIRQELALSDEVTTIRRNAPAAVLYEDGLKENKTVISSSGALIAYSGVKTGRSPKDKRIVEEPTSKDEIWWGPVNKPCSERTWSINRERAADYLRTRDHIYIVDAFAGWDPKYRIKVRVVCARAYHALFMTNMLIRPTEEELAHFGEPDFTVWNAGQFPANLHTQDMSSKSTIEINFKAMEMIILGTEYAGEMKKGIFTVMFYLMPVHHNVLTLHSSANQGIQNGDVTLFFGLSGTGKTTLSADPHRLLIGDDEHCWSDHGVFNIEGGCYAKCINLSAEKEPEIFDAIKFGSVLENVIYDEKSHVVDYDDSSITENTRCAYPIDYIPSAKIPCLADSHPKNIILLTCDASGVLPPVSKLTPEQVMYHFISGYTSKMAGTEQGVTEPEPTFSSCFGQPFLALHPIRYATMLATKMSQHKANAYLINTGWTGSSYVSGGKRCPLKYTRAILDSIHDGSLANETYETLPIFNLQVPTKVNGVPAELLNPAKNWSQGESKYRGAVTNLANLFVQNFKIYQDRATPDVLAAGPQFE

- binding [1]: binds
B4: Tsa1p (protein, UniProt P34760 1-196)
chain: MVAQVQKQAPTFKKTAVVDGVFDEVSLDKYKGKYVVLAFIPLAFTFVCPTEIIAFSEAAKKFEEQGAQVLFASTDSEYSLLAWTNIPRKEGGLGPINIPLLADTNHSLSRDYGVLIEEEGVALRGLFIIDPKGVIRHITINDLPVGRNVDEALRLVEAFQWTDKNGTVLPCNWTPGAATIKPTVEDSKEYFEAANK

- binding [1]: binds
B5: Yhr087wp (protein, UniProt P38804 1-111)
chain: MSTVTKYFYKGENTDLIVFAASEELVDEYLKNPSIGKLSEVVELFEVFTPQDGRGAEGELGAASKAQVENEFGKGKKIEEVIDLILRNGKPNSTTSSLKTKGGNAGTKAYN
